In all, about 400,000 compounds went through this assay and about 3,700 (0.93%) were called active. Inconclusive means that the source gave no clear call. Such entries were picked first, then a sample of the others. The call rests on the fitted dose curve; in most records, active means well fitted inhibition curve with a large enough effect; inconclusive means small, poorly fitted or top-dose-only effect, or another doubt; inactive means no such curve, though single readings can be large or run the other way. A potency beside an inconclusive call is a rough fit, not a confirmed value.
target: Vitamin D3 receptor (Homo sapiens) (UniProt P11473); assay: Inhibitors of the vitamin D receptor (VDR): qHTS; conditions: VDR-SRC2-3 peptide fluorescence polarization, 2 h; max response, negative = inhibition: stronger effect = lower value
How it was run: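 Inhibition of the VDR/SRC2-3 peptide interaction is quantified by fluorescence polarization. Compounds (23 nl, pintool) incubate with the reagents for 2 hours at ambient room temperature.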
On the % scale 0 is the no-effect control and ±100 the full control effect; potency means the concentration at half of the fitted maximal effect.

Chains of the proteins cited; added tags and fusions are not shown. Lines headed by an entry give the natural chain unless they say otherwise; changes in a name come on top.
UniProt P11473: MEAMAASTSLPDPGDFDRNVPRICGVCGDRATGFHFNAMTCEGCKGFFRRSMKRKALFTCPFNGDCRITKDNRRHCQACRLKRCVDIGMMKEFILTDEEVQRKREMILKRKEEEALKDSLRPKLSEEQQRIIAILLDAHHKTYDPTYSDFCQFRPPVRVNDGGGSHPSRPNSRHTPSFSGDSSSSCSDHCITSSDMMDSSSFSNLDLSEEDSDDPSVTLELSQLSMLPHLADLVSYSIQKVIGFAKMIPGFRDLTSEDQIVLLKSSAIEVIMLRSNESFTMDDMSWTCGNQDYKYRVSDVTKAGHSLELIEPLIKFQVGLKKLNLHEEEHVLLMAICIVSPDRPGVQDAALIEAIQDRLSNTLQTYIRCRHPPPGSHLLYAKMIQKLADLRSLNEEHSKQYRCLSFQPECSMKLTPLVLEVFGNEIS

Row | SMILES | Potency | max response, negative = inhibition
1 | Cc1ccc(/C=C/C(=O)c2ccccc(=O)c2O)cc1C | active: 44.7 µM | 
2 | O=[N+]([O-])c1cccc(S(=O)(=O)NCCc2ccccc2)c1 | inconclusive: 39.8 µM [inhibitor, partial curve, poor fit] | 
3 | Cc1cnc(CNc2nc(-c3c(C)noc3C)nc3ccccc23)cn1 | inconclusive: 89.1 µM [inhibitor, partial curve, poor fit] | 
4 | CC(C)(C)OC(=O)N(CCc1ccccc1)Cc1cccc(OCc2cccc(NC(=O)C3CCC3)c2)c1 |  | inactive: 14.3%
5 | N#Cc1c(-c2ccc(Cl)cc2)cc(-c2ccccc2)nc1SCC(=O)O | inconclusive: 50.1 µM [inhibitor, partial curve, poor fit] | 
6 | Nc1c(Cl)c(Cl)nc(C(=O)OCC(=O)NC2CCCCC2)c1Cl |  | inactive: -1.16%
7 | CCc1ccccc1N1C(=O)C(Cl)=C(N2CCOCC2)C1=O | inconclusive: 22.4 µM [inhibitor, partial curve, poor fit] | 
8 | O=C(Cn1c(=O)oc2ccccc21)Nc1n[nH]c(=S)s1 | inconclusive: 79.4 µM [inhibitor, partial curve, poor fit] | 
9 | CCC(C)n1c(SCC(=O)Nc2ccccc2C(=O)OC)nc2ccsc2c1=O (centres undefined) |  | inactive: -4.69%
10 | CC(C)n1c(N2CCN(C(=O)Nc3ccc(Cl)cc3)CC2)nc2ccccc21 | inconclusive: 89.1 µM [inhibitor, single point] | 
11 | COC(=O)c1ccc(CNC(=O)Cn2cnc3c(SC)nc(N)nc32)cc1 |  | inactive: -15.3%
12 | O=C(NCCCn1ccnc1)/C(=C\c1ccccc1Cl)NC(=O)c1ccccc1 |  | inactive: -4.95%
13 | Cc1occc1-c1nnc(SCC(=O)c2ccc3c(c2)OCCO3)n1CC1CCCO1 (centres undefined) | inconclusive: 89.1 µM [inhibitor, single point] | 
14 | CC(=O)c1cccc(NC(=S)NC(=O)c2cccc(Cl)c2)c1 | inconclusive: 39.8 µM [inhibitor, partial curve, poor fit] | 
15 | O=C(COc1ccc(Br)cc1)Nc1nnc(-c2cccnc2)s1 | inconclusive: 3.16 µM [inhibitor, partial curve, poor fit] | 
16 | O=C(CSC1=NCCS1)Nc1ccc(S(=O)(=O)N2CCCCCC2)cc1 | inconclusive: 79.4 µM [inhibitor, single point] | 
17 | CO/N=C/C(=N\Nc1ccc(C)cc1)C(=O)c1ccc(OC)cc1 |  | inactive: 5.37%
18 | Cc1cccc(C)c1Nc1nnc(SCc2nc3ccccc3s2)s1 |  | inactive: -12.4%
19 | Cc1ccc(/C=N/N2CCN(C3c4ccccc4-c4ccccc43)CC2)o1 |  | inactive: -16.4%

Fetched by compound from the entries so far:
Row | SMILES | Potency | max response, negative = inhibition
8 | O=C(Cn1c(=O)oc2ccccc21)Nc1n[nH]c(=S)s1 | inconclusive: 79.4 µM [inhibitor, partial curve, poor fit] | 
3 | Cc1cnc(CNc2nc(-c3c(C)noc3C)nc3ccccc23)cn1 | inconclusive: 89.1 µM [inhibitor, partial curve, poor fit] | 

— PubChem BioAssay AID504847 (National Center for Advancing Translational Sciences (NCATS), 2011)
